Assay results taken from patent US12178838B2, “Synthetic neuromodulatory peptides” (Lactocore, Inc., priority 2019, dated 2024).
Entries after “also recorded” stand apart in the source; their conditions may differ. Not every detail of the peptide structures is certain; ends, links or a residue may be inferred. Residues, ends and D or L forms follow the SMILES beside them.

How the values were obtained:
Format in all cases: in vivo
Sprague Dawley rats = assay: Predator odor stress exposure and conditioned place aversion (PTSD model); conditions: FQSE 0.5 mg/kg intra-nasally; DOX 1 mg/kg IP; vs VEH
Protocol: Doxazosin (DOX, Sigma-Aldrich, St. Louis, MO, USA, 1 mg/kg, IP) was prepared in sterile saline. Previously it has been shown that DOX is effective in the treatment of some PTSD symptoms in veterans (Rodgman et al. (2016). Doxazosin XL reduces symptoms of posttraumatic stress disorder in veterans with PTSD: a pilot clinical trial. J. Clin. Psychiat., 77(5), e561-565). The two doses of FQSE (SEQ ID NO:10) (0.05 and 0.5 mg/kg, CS, Menlo Park, CA) were prepared fresh for each test day in sterile saline and administered intra-nasally 30 minutes prior to testing. Each dose was administered in a randomized order across groups. […] The same procedure with isoflurane was used to administer doxazosin however the drug was administered IP. Individuals performing behavioral tests were blind to drug treatment. […] Potential differences between groups that were not odor exposed and odor exposed groups were analyzed using One-Way ANOVA with drug dose as the primary factor. […]

[1] = tested on: Wistar rats after chronic unpredictable mild stress; assay: CUMS model: Social Interaction test; conditions: 4 injections
Protocol: During stress, the animals were placed in individual cells and exposed to stressful conditions each day for 26 days. Two stressors were used daily, applied in the following order: • Day 1. 10 am-6 pm, rats were placed in a cold room for an hour. From 6 PM to 10 am the lights were turned on and off every 2 hours. • Day 2. 10 am-6 pm, cage tilted to 45°. From 6 PM to 10 am water deprivation. • Day 3. 10 am-6 pm, stroboscopic light. From 6 PM to 10 am the light was left on overnight. • Day 4. 10 am-6 pm, wet bedding. From 6 PM to 10 am the animals were put in a small mouse cage. • Day 5. 10 am-6 pm, no bedding. From 6 PM to 10 am the lights were turned on and off every 2 hours. • Day 6. 10 am-6 pm, a new rat was placed in the cage (6-month-old). From 6 PM to 10 am the light was left on overnight. • Day 7. 10 am-6 pm, white noise. From 6 PM to 10 am a stroboscopic light was turned on at night. • Day 8-26. Repetition of previously used stressors in the specified sequence.
Experimental substances were administered daily starting from the 58-59 day of the experiment. […]
To assess the social activity and depressive state of the animals, a test that evaluates a social interaction of rodents was used. […] Within 10 minutes the duration and number of social contacts with the juvenile male and number of threatening and aggressive contacts were recorded. […]

Wistar rats = assay: Learned helplessness model: Open Field test
Protocol: Weigh was measured on an analytical balance, with an accuracy of 0.0001 g, the solution was prepared with a margin of 0.5 ml.
The tetracyclic antidepressant Maprotiline (Lyudiomil), a monoamine reuptake inhibitor, was used as a positive control. Animals received a daily intraperitoneal injection (i.p) of Maprotiline for ten days (M9651, Merck, 4.5 mg/kg, dissolved in saline: 200 μl per administration).
The state of “learned helplessness” according to modern concepts adequately reflects anxiety-depressive syndrome, reproducing the main signs of a person's endogenous depression, including the severity of effects of helplessness, hopelessness, and characteristic endocrine disorders. To develop LH, rats were subjected to uncontrolled unavoidable aversive stress (electro cutaneous irritation). […] Stimulation was performed automatically using a software randomizer.
The Open Field test is a classic method for assessing the level of motor activity and exploratory behavior of rodents in new stressogenic conditions. […] On the 5th day after stressing in the LH model, the rat was placed in the center of the OF. The following parameters were measured for 5 minutes: latency to start of moving, the number of crossed squares (outside, intermediate and central), the duration of the rears and immobilization time.
“LH”—a group of animals subjected to stress, in which a depressive state of “learned helplessness” was developed. Pharmacotherapy was not performed in the LH group; the development of experimental depression was studied. […] “LH+Map.”—the comparison drug group. Maprotiline was injected intraperitoneally at a dosage of 4.5 mg/kg ten days daily to develop experimental depression.

SMILES: NC(=O)CC[C@H](NC(=O)[C@@H](N)Cc1ccccc1)C(=O)N[C@@H](CO)C(=O)N[C@@H](CCC(=O)O)C(=O)O [FQSE] (H-FQSE-OH)
- predator odor-induced place aversion (Sprague Dawley rats): significant difference; also recorded: completely attenuated
- duration of social contacts ([1]; FQSE 0.05 mg/kg i.n., vs CUMS+veh): significantly higher
- duration of social contacts ([1]; FQSE 0.5 mg/kg i.n., diazepam 0.5 mg/kg i.p., vs control non-stressed rats): significant decrease
- decrease in the number of animals showing immobilization after LH (Wistar rats; FQSE 0.5 mg/kg i/n): 1.4 fold
- vertical activity (rears) (Wistar rats; FQSE 0.5 mg/kg i/n, Map 4.5 mg/kg i/p): significant decrease
- freezing time when placed in the center of the OF (Wistar rats; FQSE 2.5 mg/kg i/n, Maprotiline 4.5 mg/kg i/p, daily, vs LH group): significant decrease
- decrease in the number of animals showing immobilization after LH (Wistar rats; Maprotiline 4.5 mg/kg i/p, FQSE 2.5 mg/kg i/n): 1.75 fold
